Test results from publication doi:10.1101/2021.05.25.445488.
No constants are given. Whether binding was seen depends on the method and setting. In cells and extracts the contact can be indirect. Some entries that bind do so weakly or less than the wild type.

Chains of the proteins cited; added tags and fusions are not shown. Lines headed by an entry give the natural chain unless they say otherwise; changes in a name come on top. A line that says so, or that is headed by a name, gives the form on record, which may keep a tag or linker. Residues count along the entry.
UniProt O75386: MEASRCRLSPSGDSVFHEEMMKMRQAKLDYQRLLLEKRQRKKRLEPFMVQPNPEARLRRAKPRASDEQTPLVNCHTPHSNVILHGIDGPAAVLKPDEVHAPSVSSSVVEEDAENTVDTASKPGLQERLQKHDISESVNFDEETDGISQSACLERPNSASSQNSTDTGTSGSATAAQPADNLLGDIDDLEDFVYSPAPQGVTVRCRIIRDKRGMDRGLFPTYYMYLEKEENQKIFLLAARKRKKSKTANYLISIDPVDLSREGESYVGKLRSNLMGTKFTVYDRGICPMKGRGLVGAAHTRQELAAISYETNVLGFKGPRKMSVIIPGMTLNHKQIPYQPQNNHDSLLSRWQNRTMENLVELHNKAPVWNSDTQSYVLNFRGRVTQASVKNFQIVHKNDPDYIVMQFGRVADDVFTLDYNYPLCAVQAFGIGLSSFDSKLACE
Myc-ARL13B D2 (1-244 aa) (Q3SXY8, residues 1-244): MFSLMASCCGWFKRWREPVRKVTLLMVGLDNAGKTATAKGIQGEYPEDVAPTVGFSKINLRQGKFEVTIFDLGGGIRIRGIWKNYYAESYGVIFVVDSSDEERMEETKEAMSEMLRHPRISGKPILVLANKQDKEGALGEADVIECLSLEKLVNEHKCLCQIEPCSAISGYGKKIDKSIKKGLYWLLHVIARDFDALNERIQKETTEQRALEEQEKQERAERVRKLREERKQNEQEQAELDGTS
Myc-ARL13B D5 (245-428 aa) (Q3SXY8, residues 245-428): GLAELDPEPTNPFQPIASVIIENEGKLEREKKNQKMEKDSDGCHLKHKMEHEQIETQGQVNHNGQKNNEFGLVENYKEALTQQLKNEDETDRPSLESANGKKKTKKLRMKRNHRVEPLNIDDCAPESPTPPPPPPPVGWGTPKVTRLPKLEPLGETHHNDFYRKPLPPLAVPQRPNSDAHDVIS
Myc-ARL13B D6 (362-428) (Q3SXY8, residues 362-428): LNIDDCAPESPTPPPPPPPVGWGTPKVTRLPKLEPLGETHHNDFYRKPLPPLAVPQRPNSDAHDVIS
Myc-ARL13B V359A (Q3SXY8-1, form named): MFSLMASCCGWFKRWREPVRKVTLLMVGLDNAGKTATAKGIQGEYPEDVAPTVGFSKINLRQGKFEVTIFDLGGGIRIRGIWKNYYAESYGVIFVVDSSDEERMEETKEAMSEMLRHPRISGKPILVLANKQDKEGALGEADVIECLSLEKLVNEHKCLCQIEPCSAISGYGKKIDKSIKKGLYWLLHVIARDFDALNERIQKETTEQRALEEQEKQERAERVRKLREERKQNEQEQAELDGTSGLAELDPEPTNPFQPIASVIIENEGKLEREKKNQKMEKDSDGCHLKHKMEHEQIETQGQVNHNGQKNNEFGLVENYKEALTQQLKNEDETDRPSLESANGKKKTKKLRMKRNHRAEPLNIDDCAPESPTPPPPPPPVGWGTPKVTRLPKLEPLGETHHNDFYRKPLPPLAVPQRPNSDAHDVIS

What follows are substances tested against GST-TULP3 full length (human) (UniProt O75386) (assay: pull-down).

Substance | binding
Myc-ARL13B full length, in vitro translated (from UniProt Q3SXY8-1 1-428) | binds

Molecular target: GST-TULP3 full length (human) (UniProt O75386)
Test: pull-down
Remark: another data set of the same source

Substance | binding
Myc-ARL13B D2 (1-244 aa) (from UniProt Q3SXY8-1 1-244) (domain or fragment) | binds
Myc-ARL13B D5 (245-428 aa) (from UniProt Q3SXY8-1 245-428) (domain or fragment) | no binding
Myc-ARL13B D6 (362-428) (from UniProt Q3SXY8-1 362-428) (domain or fragment) | no binding
Myc-ARL13B V359A (from UniProt Q3SXY8-1 1-428) | binds
Myc-ARL13B full length, in vitro translated (from UniProt Q3SXY8-1 1-428) | binds
